From US20050064411A1
These are yes or no findings as the source states them, for the method shown. For some of these results: In cells and extracts the contact can be indirect. Some binding calls cover weakened binding; strength is not graded here.

The chains behind the UniProt entries cited, without tags or fusion partners. Where a name states a change or a piece, a line headed by the entry shows the natural chain unless it says otherwise.
UniProt Q76N89: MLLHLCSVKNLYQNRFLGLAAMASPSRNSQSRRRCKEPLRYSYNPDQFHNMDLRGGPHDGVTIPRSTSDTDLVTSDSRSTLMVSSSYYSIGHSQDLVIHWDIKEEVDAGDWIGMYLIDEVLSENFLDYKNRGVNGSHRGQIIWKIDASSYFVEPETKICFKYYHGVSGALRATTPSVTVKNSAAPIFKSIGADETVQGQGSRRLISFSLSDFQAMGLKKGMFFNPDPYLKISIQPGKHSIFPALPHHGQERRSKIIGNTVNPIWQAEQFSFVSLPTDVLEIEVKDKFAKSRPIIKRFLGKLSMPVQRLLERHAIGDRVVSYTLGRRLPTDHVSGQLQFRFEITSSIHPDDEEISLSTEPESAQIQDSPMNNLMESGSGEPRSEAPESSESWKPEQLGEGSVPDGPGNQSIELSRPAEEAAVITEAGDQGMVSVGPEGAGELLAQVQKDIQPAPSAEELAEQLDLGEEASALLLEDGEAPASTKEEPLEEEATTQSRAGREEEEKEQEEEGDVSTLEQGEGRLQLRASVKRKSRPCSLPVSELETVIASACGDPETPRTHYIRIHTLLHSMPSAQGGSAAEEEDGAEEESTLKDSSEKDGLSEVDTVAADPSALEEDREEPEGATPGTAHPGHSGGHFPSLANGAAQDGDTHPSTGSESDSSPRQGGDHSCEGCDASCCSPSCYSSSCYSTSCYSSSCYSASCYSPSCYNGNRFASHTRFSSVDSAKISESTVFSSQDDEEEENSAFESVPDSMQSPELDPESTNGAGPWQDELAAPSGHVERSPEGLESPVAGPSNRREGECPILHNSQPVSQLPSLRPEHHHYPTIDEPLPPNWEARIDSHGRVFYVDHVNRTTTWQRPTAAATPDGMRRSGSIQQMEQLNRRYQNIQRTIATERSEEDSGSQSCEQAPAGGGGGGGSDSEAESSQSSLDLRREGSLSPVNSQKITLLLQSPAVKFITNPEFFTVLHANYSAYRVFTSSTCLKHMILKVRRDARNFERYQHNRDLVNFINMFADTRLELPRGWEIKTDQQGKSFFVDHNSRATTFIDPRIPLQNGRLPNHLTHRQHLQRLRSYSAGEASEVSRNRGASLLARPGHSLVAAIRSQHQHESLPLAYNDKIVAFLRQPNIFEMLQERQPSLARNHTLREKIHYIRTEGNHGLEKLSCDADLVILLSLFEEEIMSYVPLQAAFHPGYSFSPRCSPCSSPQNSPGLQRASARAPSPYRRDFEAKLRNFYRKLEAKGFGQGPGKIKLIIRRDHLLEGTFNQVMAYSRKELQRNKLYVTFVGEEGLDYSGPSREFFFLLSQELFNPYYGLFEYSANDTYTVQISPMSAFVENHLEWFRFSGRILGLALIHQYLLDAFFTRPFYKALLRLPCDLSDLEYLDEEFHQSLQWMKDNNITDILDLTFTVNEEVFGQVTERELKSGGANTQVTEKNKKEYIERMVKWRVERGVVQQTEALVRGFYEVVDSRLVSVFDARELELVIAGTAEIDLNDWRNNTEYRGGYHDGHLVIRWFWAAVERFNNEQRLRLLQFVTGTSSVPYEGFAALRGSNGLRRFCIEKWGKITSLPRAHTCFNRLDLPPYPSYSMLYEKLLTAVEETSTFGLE

Key:
FLAG-AICD (human) [1] = target: FLAG-AICD (human) (UniProt P05067); test: co-immunoprecipitation from Cos7 cells: IP with anti-NEDL-1 antibody, detection with anti-FLAG antibody (FIG. 7)
FLAG-AICD (human) [2] = target: FLAG-AICD (human) (UniProt P05067); test: immunoprecipitation with anti-FLAG antibody, detection with anti-NEDL-1 antibody (FIG. 8 legend)
FLAG-AICD (human) [3] = target: FLAG-AICD (human) (UniProt P05067); test: immunoprecipitation with anti-NEDL-1 antibody, detection with anti-FLAG antibody (FIG. 7 legend)
FLAG-AICD (human) [4] = target: FLAG-AICD (human) (UniProt P05067); test: co-immunoprecipitation from Cos7 cells: IP with anti-FLAG antibody, detection with anti-NEDL-1 antibody (FIG. 8)

Measured: binding

NEDL-1 protein (from UniProt Q76N89 22-1606) (enzyme)
binds: all assays above
